# Source: PubChem BioAssay AID1347076 (National Center for Advancing Translational Sciences (NCATS), 2019)
# Where “and” joins values, the source holds several entries; their conditions need not be identical. Identical values can stand only once. The whole screen tested about 400,000 compounds, of which about 13,000 (3.2%) were called active. The shares of active, inactive and inconclusive entries below differ from those in the screen. The call rests on the fitted dose curve; in most records, active means well fitted cell-killing curve with a large enough effect; inconclusive means small, poorly fitted or top-dose-only effect, or effect the other way; inactive means flat fitted curve, though single readings scatter. Potencies of inconclusive entries are doubtful fits and often do not repeat.
# Assay: qHTS assay for MDR1-selective chemotherapeutics: Primary screen using the drug-selected MDR subline cells KB-V1; further: nearly all actives have a fitted effect of over 60% in size
# Conditions: KB-V1 MDR cells viability, CellTiter-Glo, 72 h; activity change, negative = cytotoxicity: at 46.1 µM (top of the series)
# Summary of the method: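 Following 72 h at 37 degrees C with compound, KB-V1 cell viability was read by CellTiter-Glo luminescence, medium being phenol-red-free DMEM plus 10% FBS; concentration-response parameters came from normalized, curve-fitted qHTS data.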
# On the % scale 0 is the no-effect control and ±100 the full control effect; potency means the concentration at half of the fitted maximal effect.
SMILES,Potency,"activity change, negative = cytotoxicity"
CCOc1ccccc1-n1nnnc1SCC(=O)N1CCCC1=O,"inconclusive: 20.6 µM [cytotoxic, single point]",
COc1ccc(S(=O)(=O)N(CC(=O)Nc2cccc(C)c2)c2ccc(C)cc2)cc1OC,"inconclusive: 5.17 µM [cytotoxic, full curve]",
O=C(NC1=C(Nc2ccc(F)cc2)C(=O)c2ccccc2C1=O)c1ccc(Cl)cc1,"inconclusive: 29.1 µM [cytotoxic, single point]",
CCOCCCn1c(SCc2ccccc2)nnc1-c1ccncc1,"inconclusive: 13 µM [cytotoxic, partial curve]",
O=C(CCS(=O)(=O)c1cc(Br)cc2c1N(C(=O)C1CC1)CC2)NCC1CCCO1 (configuration not stated),"inconclusive: 13 µM [rising, partial curve, poor fit]",
CCN1CCN(c2nc3ccccn3c(=O)c2/C=C(\C#N)S(=O)(=O)c2ccccc2)CC1,"inconclusive: 0.0052 µM [rising, full curve, poor fit]",
CCOC(=O)C[C@H]1c2ccccc2S(=O)(=O)N1Cc1ccc(Cl)cc1,"active: 16.4 µM and inconclusive: 23.1 µM [cytotoxic, single point]",
NC(Cc1ccc(F)cc1)c1csc(Nc2cc(NCc3ccco3)ncn2)n1 (configuration not stated),"inconclusive: 18.4 µM [cytotoxic, partial curve, poor fit]",
Cc1ccc(OCCOc2ccc(Br)cc2/C=N\NC(N)=O)cc1,,inactive: 2.46%
CCOc1ccc(CCNC(=O)c2[nH]c3cc(OC)ccc3c2Sc2ccccc2)cc1OCC,,inactive: -16.7%
COC(=O)CNC(=O)C1Nc2ccccc2C2C=CCC12 (configuration not stated),"inconclusive: 10.3 µM [rising, partial curve, poor fit]",
COc1ccc(/C=C/c2nc3cc(-c4ccccc4)ccc3o2)cc1O,"inconclusive: 25.9 µM [cytotoxic, single point]",
O=C(Cn1ncc2c3ccccc3n(Cc3ccccc3F)c2c1=O)N1CCCCC1,"inconclusive: 23.1 µM [cytotoxic, partial curve, poor fit]",
CSc1ccc(S(=O)(=O)Nc2ccc3c4c(cccc24)CC3)cc1,active: 14.6 µM,
CCOC(=O)C1=C(CN(CC)Cc2ccccc2)NC(=O)NC1c1ccc(OC(C)C)cc1 (configuration not stated),"inconclusive: 29.1 µM [cytotoxic, single point]",
COc1ccccc1CNC(=O)c1ccc(N2CCCC2)c(NC(=O)NCc2ccc(F)cc2)c1,,inactive: -7.08%
CCCCNC(=O)CCNC(=O)c1ccc(C(C)(C)C)cc1,active: 14.6 µM,
COc1ccc(N2CCN(c3ccc(-c4nc(-c5cccc(C)c5)no4)cc3[N+](=O)[O-])CC2)cc1,,inactive: 18.2%
COc1ccc(-c2csc(N(CCCN(C)C)C(=O)c3cccs3)n2)cc1,active: 7.31 µM,
Cc1ccc2nc(/C(C#N)=C\c3ccc(Oc4ccc(C(F)(F)F)cc4[N+](=O)[O-])cc3)[nH]c2c1,"inconclusive: 13 µM [cytotoxic, partial curve]",
COc1ccc(NC(=O)c2cccc(OC(=S)N3CCOCC3)c2)cc1,active: 16.4 µM,
c1ccc(OCCNc2nc(NCC3CC3)nc3ccsc23)cc1,"inconclusive: 18.4 µM [cytotoxic, single point]",
CC(C(=O)NCc1cccnc1)N1C(=O)c2ccccc2C1=O (configuration not stated),"inconclusive: 13 µM [rising, partial curve, poor fit]",

SMILES,Potency,"activity change, negative = cytotoxicity"
Cc1ccsc1CN(C)C(=O)CCc1nnc(COc2ccccc2)o1,"inconclusive: 20.6 µM [cytotoxic, partial curve, poor fit]",
N#C/C(=C(/O)COC(=O)c1cccnc1Cl)c1nc2ccccc2[nH]1,,inactive: -3.19%
CC1=CC(C)[C@H](/C=N/n2c(=O)[nH]c3c([nH]c4ccc(Br)cc43)c2=O)C(C)C1 (some centres not stated),"inconclusive: 32.6 µM [cytotoxic, single point]",
CCn1c(SCC(=O)Nc2nccs2)nnc1-c1ccc(S(=O)(=O)N2CCCCCC2)cc1,"inconclusive: 16.4 µM [cytotoxic, partial curve, poor fit]",
CC(C)CN1CCN(Cc2cnc(-c3ccc(Cl)cc3)nc2)CC1CCO (configuration not stated),"inconclusive: 8.2 µM [cytotoxic, partial curve, poor fit]",
O=C(O)/C=C/C(=O)Nc1ccc(S(=O)(=O)Nc2nccs2)cc1,,inactive: -2.22%
CSCC[C@H](NC(=O)c1cccc(S(=O)(=O)N2CCCCCC2)c1)c1nc2ccccc2[nH]1,,inactive: -15%
Cc1cccc(C(=O)Nc2nnc(SCC(=O)Nc3ccc4c(c3)oc3ccccc34)s2)c1,,inactive: -8.54%
COc1cc(N2CCCC2)c(OC)cc1/C=C(/C#N)c1cccc(F)c1,active: 16.4 µM,
Cc1c(C(=O)NCCc2ccc(S(N)(=O)=O)cc2)sc2nc3n(c(=O)c12)CCCC3,,inactive: 28.3%
COc1ccc(N2CCN(C3C(=O)Nc4ccccc4-n4nnnc43)CC2)cc1 (configuration not stated),"inconclusive: 23.1 µM [cytotoxic, partial curve, poor fit]",
CCN1CCN(C(c2ccccc2)c2nnnn2Cc2ccc(OC)cc2)CC1 (configuration not stated),,inactive: -20.9%
CCc1ccccc1OCC(=O)Nc1ccc(C)c(S(=O)(=O)N2CCCCCC2)c1,"inconclusive: 29.1 µM [cytotoxic, single point]",
CCN(C)c1ccc(/C=C/c2ccnc3ccccc23)cc1,"inconclusive: 14.6 µM [cytotoxic, single point]",
CC(CNC(=O)Cn1cnc2c(NCc3ccccc3)ncnc21)c1ccccc1 (configuration not stated),,inactive: 0%
CCOc1ccc(S(=O)(=O)NCc2ccccn2)cc1NC(=O)c1ccccc1,active: 6.51 µM,
Cc1ccc(-n2cc(CN3CCC(O)(c4ccccn4)CC3)c(-c3ccc(F)cc3)n2)cc1,"inconclusive: 5.17 µM [cytotoxic, partial curve]",
O=C(N/N=C/c1cc(Br)c(Br)s1)c1ccncc1,"inconclusive: 3.66 µM [cytotoxic, full curve]",
COc1ccccc1OCCn1nnc2ccccc21,"inconclusive: 29.1 µM [rising, single point]",
O=C1N=C(N2CCCCC2)S/C1=C\c1ccccc1F,,inactive: -25%
CC1CCc2cc(F)ccc2N1C(=O)CSc1nnc(-c2cccs2)n1C (configuration not stated),active: 7.31 µM,
COc1ccc(CCN(C)CCC(=O)Nc2c(C)cc(C)cc2C)cc1OC,"inconclusive: 10.3 µM [cytotoxic, partial curve, poor fit]",
CCOc1cccc(C(=O)Nc2ccc(NC(=O)c3cc4ccccc4o3)c(OC)c2)c1,"inconclusive: 23.1 µM [cytotoxic, single point]",

SMILES,Potency,"activity change, negative = cytotoxicity"
CN(C)c1ccnc(Oc2ccc(C(C)(C)C)cc2)c1C#N,"inconclusive: 16.4 µM [cytotoxic, partial curve]",
COc1cccc(CC(=O)n2nc(N)c3cc4ccc(OC)cc4nc32)c1,,inactive: -8.22%
Cc1cccc(Cn2c(C)c(CNC3CCCCC3)c(C(=O)O)c2C)c1,"inconclusive: 23.1 µM [rising, single point]",
COc1cccc(-c2cc(C(F)(F)F)nc(-n3cccn3)n2)c1,"inconclusive: 23.1 µM [cytotoxic, partial curve, poor fit]",
Cc1ccc(C(=O)Nc2ccc(C)c(S(=O)(=O)N(C)C)c2)s1,"inconclusive: 25.9 µM [cytotoxic, single point]",
COc1ccc(CCN(C)CC(O)COc2ccc(C(C)=O)cc2OC)cc1OC (configuration not stated),,inactive: 4.21%
O=C(CN(Cc1ccco1)Cc1cccs1)N1CCN(S(=O)(=O)c2cccc(F)c2)CC1,"inconclusive: 29.1 µM [cytotoxic, single point]",
Cc1cccc(C(=O)NCC2CCN(C(=O)c3cccc(C)c3)CC2)c1,"inconclusive: 8.2 µM [cytotoxic, partial curve]",
Cc1nnc2n(-c3ccccc3)c(=O)c3ccccc3n12,,inconclusive: 6.39%
C/C(=N\NC(=O)c1sccc1-n1cccc1)c1cccs1,,inactive: -4%
O=c1sc2ccccc2c(N2CCCC2)c1[N+](=O)[O-],"inconclusive: 32.6 µM [cytotoxic, single point]",
O=C(Nc1c(F)c(F)c(F)c(F)c1F)c1ccc(Br)o1,,inactive: 0%
COc1ccc2nc3oc(C(=O)N4CCN(c5cccc(Cl)c5)CC4)cc3cc2c1,"inconclusive: 7.31 µM [cytotoxic, partial curve, poor fit]",
O=C(c1cc(C2CC2)nc2ccccc12)N1N=C(C(F)F)CC1(O)C(F)F (configuration not stated),"inconclusive: 23.1 µM [cytotoxic, single point]",
CCN1C(=O)[C@H]2[C@@H](c3ccc(C)cc3)N3C(=O)N(c4ccc(C(F)(F)F)cc4)C(=O)[C@@]3(CC(C)C)[C@H]2C1=O,,inactive: -0.61%
O=C(c1ccco1)N1CCN(S(=O)(=O)c2cccc(Cl)c2)CC1,"inconclusive: 14.6 µM [cytotoxic, partial curve, poor fit]",
COc1ccc(C(=O)NCCNC(=O)c2ccc(OC)cc2)cc1,,inactive: 12.8%
CSc1ccc(N/N=C(/C#N)S(=O)(=O)C(C)(C)C)cc1,"inconclusive: 13 µM [cytotoxic, partial curve]",
Cc1noc(NS(=O)(=O)c2ccc(NC(=O)c3cc(S(=O)(=O)N(C)c4ccccc4)ccc3Cl)cc2)c1C,"inconclusive: 11.6 µM [rising, partial curve, poor fit]",
CCOC(=O)C1(Cc2ccccc2C(F)(F)F)CCN(C2CCN(C(C)C)CC2)CC1,"inconclusive: 8.2 µM [cytotoxic, partial curve]",
O=C(NNC(=O)c1ccc[nH]1)Nc1cccc(C(F)(F)F)c1,"inconclusive: 0.206 µM [cytotoxic, full curve]",
